Earlier results, collected in patent US11536685B2, “High throughput assay for identifying microbial redox enzymes” (TRUSTEES OF BOSTON UNIVERSITY, priority 2020, dated 2022).
Some results were stated once for a whole list of compounds, not compound by compound.

Details: after 1 year of treatment; cited from earlier work

## c1cnc2cc3c(cc2n1)[C@@H]1CNC[C@H]3C1 [varenicline]
  abstinence rate: 15-30%
